Cleaved PARP in drug-treated melanoma cells

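The test systems are human melanoma cell lines, treated with two drugs together for 72 h and then stained and imaged. Each value is the cleaved-PARP-positive fraction of nuclei relative to DMSO-treated wells, in %, so that 100 equals the control and higher values mean more apoptosis. Every drug was used at one fixed concentration, the higher of two screened. No replicate spread is given; individual values may be noisy. Basal and induced levels differ widely between cell lines.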 This is part of the screen, not chosen by result.

First drug in all entries: AS-252424, 5000 nM, O=C1NC(=O)/C(=C/c2ccc(-c3ccc(F)cc3O)o2)S1

Second drug,UACC-62
Cn1c(Nc2ccc(C(F)(F)F)cc2)nc2cc(Oc3ccnc(-c4ncc(C(F)(F)F)[nH]4)c3)ccc21 at 400 nM,378
CC1(C)CCC(c2ccc(Cl)cc2)=C(CN2CCN(c3ccc(C(=O)NS(=O)(=O)c4ccc(N[C@H](CCN5CCOCC5)CSc5ccccc5)c(S(=O)(=O)C(F)(F)F)c4)cc3)CC2)C1 at 2000 nM,308
Nc1ncn([C@H]2C[C@H](O)[C@@H](CO)O2)c(=O)n1 at 500 nM,243
Cn1cc(C2=C(c3cn(C4CCN(Cc5ccccn5)CC4)c4ccccc34)C(=O)NC2=O)c2ccccc21 at 4000 nM,606
Oc1cc(-c2nc(-c3ccccc3)[nH]c2-c2ccncc2)ccc1Cl at 1000 nM,493
CN(C)S(=O)(=O)c1ccc2c(c1)/C(=C/c1cc3c([nH]1)CCCC3)C(=O)N2 at 2000 nM,205
NCC(=O)Nc1ccc(-n2nc(C(F)(F)F)cc2-c2ccc3c(ccc4ccccc43)c2)cc1 at 5000 nM,212
CN(NC(=O)CC(=O)NN(C)C(=S)c1ccccc1)C(=S)c1ccccc1 at 30 nM,257
Cn1cnc2c(F)c(Nc3ccc(Br)cc3Cl)c(C(=O)NOCCO)cc21 at 75 nM,357
C=C(c1ccc(C(=O)O)cc1)c1cc2c(cc1C)C(C)(C)CCC2(C)C at 10000 nM,255
COc1ccc2c(c1)CCC1C2CCC2(C)C(NCCCCCCN3C(=O)C=CC3=O)CCC12 (centres undefined) at 2000 nM,239
Cn1cncc1[C@@](N)(c1ccc(Cl)cc1)c1ccc2c(c1)c(-c1cccc(Cl)c1)cc(=O)n2C at 50 nM,120
CN(c1ncccc1CNc1nc(Nc2ccc3c(c2)CC(=O)N3)ncc1C(F)(F)F)S(C)(=O)=O at 400 nM,228
Cc1cc(Nc2cc(N3CCN(C)CC3)nc(/C=C/c3ccccc3)n2)n[nH]1 at 200 nM,150
Cn1c(=O)n(-c2ccc(C(C)(C)C#N)cc2)c2c3cc(-c4cnc5ccccc5c4)ccc3ncc21 at 20 nM,220
COCC[n+]1c2c(n(Cc3cnccn3)c1C)C(=O)c1ccccc1C2=O at 2 nM,25.7
COc1cc(N2CCC(N3CCN(C)CC3)CC2)ccc1Nc1ncc(Cl)c(Nc2ccccc2S(=O)(=O)C(C)C)n1 at 400 nM,149
CCN(CC)CCCCNc1ncc2cc(-c3cc(OC)cc(OC)c3)c(NC(=O)NC(C)(C)C)nc2n1 at 500 nM,28.7
C=CCn1c(=O)c2cnc(Nc3ccc(N4CCN(C)CC4)cc3)nc2n1-c1cccc(C(C)(C)O)n1 at 100 nM,160

The last 2 entries again:

Second drug,UACC-62
CCN(CC)CCCCNc1ncc2cc(-c3cc(OC)cc(OC)c3)c(NC(=O)NC(C)(C)C)nc2n1 at 500 nM,28.7
C=CCn1c(=O)c2cnc(Nc3ccc(N4CCN(C)CC4)cc3)nc2n1-c1cccc(C(C)(C)O)n1 at 100 nM,160

From a melanoma drug combination screen (doi:10.1371/journal.pone.0140310); values rounded.